PMC10995283
Results are given in words; binding and its absence hold for the method and conditions named. In cells and extracts the contact can be indirect. Some results given as binding are weak or reduced against the parent protein; the word gives no strength.

Chains of the proteins cited; added tags and fusions are not shown.
UniProt Q8C863: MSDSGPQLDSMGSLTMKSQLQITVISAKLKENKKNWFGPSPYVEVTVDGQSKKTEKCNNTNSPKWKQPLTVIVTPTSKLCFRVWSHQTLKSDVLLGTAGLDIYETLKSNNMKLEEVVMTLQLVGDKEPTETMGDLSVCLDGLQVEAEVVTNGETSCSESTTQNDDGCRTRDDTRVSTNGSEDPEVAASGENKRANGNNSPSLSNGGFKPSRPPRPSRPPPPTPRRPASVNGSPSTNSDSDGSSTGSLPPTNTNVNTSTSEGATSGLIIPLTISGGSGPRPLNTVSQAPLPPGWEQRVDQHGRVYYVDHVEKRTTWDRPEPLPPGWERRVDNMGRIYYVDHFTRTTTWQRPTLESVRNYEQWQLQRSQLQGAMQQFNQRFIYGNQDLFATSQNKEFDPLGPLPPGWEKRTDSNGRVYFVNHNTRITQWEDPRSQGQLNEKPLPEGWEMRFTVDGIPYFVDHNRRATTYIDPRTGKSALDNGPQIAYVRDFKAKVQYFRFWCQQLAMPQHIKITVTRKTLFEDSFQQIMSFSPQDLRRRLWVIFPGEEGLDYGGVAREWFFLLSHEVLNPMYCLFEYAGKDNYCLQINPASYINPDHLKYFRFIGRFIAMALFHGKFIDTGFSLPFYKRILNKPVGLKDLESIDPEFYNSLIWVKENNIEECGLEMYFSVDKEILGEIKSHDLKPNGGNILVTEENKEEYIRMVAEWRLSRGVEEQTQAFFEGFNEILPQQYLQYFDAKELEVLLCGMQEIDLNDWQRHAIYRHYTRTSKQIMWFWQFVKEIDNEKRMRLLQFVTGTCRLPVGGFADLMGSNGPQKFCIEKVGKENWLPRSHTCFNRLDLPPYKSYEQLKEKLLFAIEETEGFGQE

Molecular target: C‐CBL (UniProt P22682)
Test: co-IP; co-immunoprecipitation from C2C12 cell lysate (IP lysis buffer, beads overnight at 4°C), western blot

binding: binds
Substance: ITCH (from UniProt Q8C863 1-864)
